Assay results from PubChem BioAssay AID1671190 (National Center for Advancing Translational Sciences (NCATS), 2021).
Screen size: about 580,000 compounds; about 6,100 (1.1%) were called active. This list was built around the results that the source calls inconclusive (neither active nor inactive); the mix of calls is not that of the screen. The call rests on the fitted dose curve; in most records, active means well fitted inhibition curve with a large enough effect; inconclusive means small, poorly fitted or top-dose-only effect, or another doubt; inactive means no such curve, though single readings can be large or run the other way. Potencies of inconclusive entries are doubtful fits and often do not repeat.

By UniProt entry, the sequences of proteins in these tests, tags left out.
UniProt P18054, whole entry, looked up: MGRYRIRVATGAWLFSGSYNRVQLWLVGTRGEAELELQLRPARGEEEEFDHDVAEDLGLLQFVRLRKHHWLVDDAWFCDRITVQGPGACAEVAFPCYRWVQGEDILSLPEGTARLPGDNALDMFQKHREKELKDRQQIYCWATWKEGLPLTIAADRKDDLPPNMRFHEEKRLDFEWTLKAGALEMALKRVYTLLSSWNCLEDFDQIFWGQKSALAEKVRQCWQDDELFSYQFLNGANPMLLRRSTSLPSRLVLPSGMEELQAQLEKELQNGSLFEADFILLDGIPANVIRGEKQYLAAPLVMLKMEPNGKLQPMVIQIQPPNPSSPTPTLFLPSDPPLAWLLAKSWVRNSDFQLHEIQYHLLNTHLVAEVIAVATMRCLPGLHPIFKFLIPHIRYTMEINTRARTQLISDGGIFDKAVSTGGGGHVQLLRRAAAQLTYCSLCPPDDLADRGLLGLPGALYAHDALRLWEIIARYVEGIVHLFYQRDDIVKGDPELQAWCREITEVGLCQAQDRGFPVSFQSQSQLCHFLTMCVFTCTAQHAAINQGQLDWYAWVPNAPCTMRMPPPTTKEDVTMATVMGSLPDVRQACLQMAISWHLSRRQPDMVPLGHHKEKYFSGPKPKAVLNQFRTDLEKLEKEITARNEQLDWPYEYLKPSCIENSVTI

target: Polyunsaturated fatty acid lipoxygenase ALOX12 (Homo sapiens) (UniProt P18054); experiment: Primary qHTS assay for inhibitors of human arachidonate 12S-lipoxygenase (ALOX12): Round 2; settings: purified 12hLO, xylenol orange hydroperoxide absorbance; activity change, negative = inhibition: at 108 µM (top of the series) unless noted
Procedure, shortened: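 Purified human 12hLO at 150 nM in 25 mM Hepes, 0.01% Triton X-100, pH 7.0, preincubated 15 min at room temperature with compound. Reaction started with 40 uM arachidonic acid, 30 min at room temperature. Hydroperoxide measured by Fe-xylenol orange, 573/405 nm absorbance ratio.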
On the % scale 0 is the no-effect control and ±100 the full control effect; potency means the concentration at half of the fitted maximal effect.

Row | Structure (SMILES) | Potency | activity change, negative = inhibition
1 | COc1ccc(-c2nc(CSCC(=O)N3CCN(c4cc(Cl)ccc4C)CC3)c(C)o2)cc1 | inconclusive: 112 µM [inhibitor, partial curve, poor fit] | 
2 | CC(C)(C)N1NC2(CCCCC2)NC1=S | inconclusive: 31.6 µM [inhibitor, partial curve, poor fit] | 
3 | CN(C(=O)CCn1nc(-c2ccc(Cl)cc2)c2ccccc2c1=O)c1ccccc1 | inconclusive: 39.8 µM [inhibitor, partial curve, poor fit] | 
4 | COc1ccc(N=C2SC(CC(=O)Nc3ccccc3)C(=O)N2Cc2ccccn2)cc1 (configuration not stated) | inactive | 
5 | Cc1ccc(OCC(=O)N2CCN(c3ccc([N+](=O)[O-])c(N4CCOCC4)c3)CC2)cc1 | inactive | 
6 | O=C1CCCC2=C1C(c1cccc(O)c1)c1c(ccc3ncccc13)N2 (configuration not stated) | inconclusive: 100 µM [inhibitor, single point] | 
7 | Cn1nccc1C(=O)N1CCC2(CC1)NCCc1c2[nH]c2ccccc12 | inactive | 
8 | Cc1ccc(C(C)C)c(OCC(O)CN2CCN(c3ccccc3F)CC2)c1 (configuration not stated) | inconclusive: 39.8 µM [inhibitor, partial curve] | 
9 | CC1(C)CC2(CC(c3ccccc3)Oc3cc(O)ccc32)NC(=S)N1 (configuration not stated) | active: 31.6 µM | 
10 | O=C(NC(=S)N1CCCCC1CO)c1cc(Br)ccc1Cl (configuration not stated) | inconclusive: 50.1 µM [inhibitor, partial curve, poor fit] | 
11 | NC(=O)COc1ccc(/C=N\NC(=O)c2ccc(-c3ccccc3)cc2)cc1 | inactive | 
12 | COc1ccc(N2C(=O)CC(NCc3ccc(F)cc3)C2=O)cc1 (configuration not stated) | inconclusive: 35.5 µM [inhibitor, partial curve, poor fit] | 
13 | Cc1ccc(CNC(=O)C2CCC(=O)N(Cc3cccc(F)c3)C2)s1 (configuration not stated) | inconclusive: 79.4 µM [inhibitor, single point] | 
14 | O/N=C/c1ccc(OCc2ccccc2F)c(Cl)c1 | inconclusive: 100 µM [inhibitor, partial curve, poor fit] | 
15 | CCOc1cc(=O)n2c(c1C(=O)NCc1ccccc1)CCCCC2 | inactive | 
16 | Cc1cccc(-c2nc(C)c(CCNC(=O)C(=O)Nc3ccccc3C#N)s2)c1 | inconclusive: 3.55 µM [inhibitor, full curve, poor fit] | 
17 | Cc1[nH]nc2c1C(C1CC=CCC1)C(C#N)=C(N)O2 (configuration not stated) | inconclusive: 112 µM [inhibitor, single point] | 
18 | CCN1CCN(c2ccc(S(=O)(=O)N3CCOCC3)cc2NC(=O)/C=C/c2ccc(OC)cc2OC)CC1 | inconclusive: 56.2 µM [inhibitor, partial curve, poor fit] | 
19 | O=C(COc1ncnc2c1cnn2-c1ccccc1)NC1CCS(=O)(=O)C1 (configuration not stated) | inactive | 
20 | O=C(O)C1CSC(c2ccco2)N1 (configuration not stated) | inconclusive: 11.2 µM [inhibitor, full curve] | 
21 | Cc1ccc2c(c1)C(c1ccccc1)C(=O)O2 (configuration not stated) | inconclusive: 35.5 µM [inhibitor, partial curve, poor fit] | 
22 | CC(C)c1ccc(C2NC(=O)c3n[nH]c(-c4cccs4)c32)cc1 (configuration not stated) | inconclusive: 20 µM [inhibitor, full curve, poor fit] | 
23 | c1cnc2c(-c3ccc4nccn4c3)cccc2c1 | inconclusive: 0.282 µM [inhibitor, full curve, poor fit] | 

Row | Structure (SMILES) | Potency | activity change, negative = inhibition
24 | Cc1ccc2[nH]c(=O)c(CN(Cc3ccc4c(c3)OCO4)Cc3nnnn3C3CCCC3)cc2c1 | inactive | 
25 | COc1ccc(N2CCN(C(=O)C(=O)c3c[nH]c4ccccc34)CC2)cc1 | inconclusive: 63.1 µM [inhibitor, partial curve, poor fit] | 
26 | COc1ccc2nc([C@H]3CCN(CCCc4ccccc4)C3)[nH]c2c1 | inconclusive: 39.8 µM [inhibitor, full curve] | 
27 | COCCCNC(=O)c1ccc(-c2nc(CS(=O)(=O)c3ccc(C)cc3)c(C)o2)cc1 | inactive | 
28 | CCOc1c(Br)cc(C(N)=O)cc1OC | inactive | 
29 | c1coc(CN2CCN(C(c3cccs3)c3nnnn3C3CCCC3)CC2)c1 (configuration not stated) | inconclusive: 39.8 µM [inhibitor, partial curve, poor fit] | 
30 | CCOc1ccc(C(C)=O)cc1CSc1nc2nc(C)cc(C)n2n1 | inconclusive: 141 µM [inhibitor, single point] | 
31 | COC(=O)[C@@H](C)NC(=O)[C@H]1CN(C(=O)c2cccnc2)CCN1C(C)=O | inconclusive: 25.1 µM [inhibitor, partial curve, poor fit] | 
32 | CCn1c(C(=O)N2CCC(C(=O)NCCc3ccc(C)cc3)CC2)cc2sccc21 | inactive | 
33 | CCOC(=O)N1CCN(CC(=O)c2ccc(O)cc2O)CC1 | inactive | 
34 | CCNc1ncc2nc(-c3cc(F)cc(F)c3)c(=O)n(-c3ccccc3)c2n1 | inconclusive: 4.47 µM [inhibitor, full curve, poor fit] | 
35 | Cc1ccc(S(=O)(=O)N(CC(=O)Nc2ccc(Cl)cc2Cl)c2ccccc2C)cc1 | inconclusive: 112 µM [inhibitor, partial curve, poor fit] | 
36 | COc1ccc(CN2C(=O)CN(C3CCCCCC3)C(=O)C2c2ccc(F)cc2)cc1 (configuration not stated) | inactive | 
37 | CCCn1nnc(NC(=S)NC(=O)/C=C/c2ccco2)n1 | inconclusive: 4.47 µM [inhibitor, full curve, poor fit] | 
38 | O=C(Nc1ccncc1)C12CC3CC(CC(Br)(C3)C1)C2 | inactive | 
39 | Cc1ccc(-c2noc(-c3ccccc3C(=O)NCc3ccco3)n2)cc1 | inconclusive: 112 µM [inhibitor, single point] | 
40 | CCOC(=O)C1CCCN(C(=O)c2ccc3c(c2)sc2nc(-c4ccc(CC)cc4)cn23)C1 (configuration not stated) | inconclusive: 7.94 µM [inhibitor, partial curve, poor fit] | 
41 | NC(=O)CC(NC(=O)c1ccc(Br)cc1)c1ccc(NCc2ccc(F)cc2)c([N+](=O)[O-])c1 (configuration not stated) | inconclusive: 100 µM [inhibitor, single point] | 
42 | Cc1cn(C(=O)c2ccccc2)c(=S)n1-c1ccc(Br)cc1 | inactive | 
43 | CC(C)(C)OC(=O)COC(=O)c1ccc(CCNS(C)(=O)=O)cc1 | inactive | 
44 | COc1ccc(-c2csc(NC(=O)C3=COCCO3)n2)c(OC)c1 | inconclusive: 28.2 µM [inhibitor, partial curve, poor fit] | 
45 | COc1cccc(CC(=O)N2CC(CO)C3(CCNCC3)C2)c1 (configuration not stated) | inconclusive: 5.62 µM [inhibitor, full curve] | 
46 | Cc1cc(C)cc(NC(=O)CC23CC4CC(C2)CC(n2nnc(C)n2)(C4)C3)c1 | inactive | 

From no. 37 up to 41, copied from above:
Row | Structure (SMILES) | Potency | activity change, negative = inhibition
37 | CCCn1nnc(NC(=S)NC(=O)/C=C/c2ccco2)n1 | inconclusive: 4.47 µM [inhibitor, full curve, poor fit] | 
38 | O=C(Nc1ccncc1)C12CC3CC(CC(Br)(C3)C1)C2 | inactive | 
39 | Cc1ccc(-c2noc(-c3ccccc3C(=O)NCc3ccco3)n2)cc1 | inconclusive: 112 µM [inhibitor, single point] | 
40 | CCOC(=O)C1CCCN(C(=O)c2ccc3c(c2)sc2nc(-c4ccc(CC)cc4)cn23)C1 (configuration not stated) | inconclusive: 7.94 µM [inhibitor, partial curve, poor fit] | 
41 | NC(=O)CC(NC(=O)c1ccc(Br)cc1)c1ccc(NCc2ccc(F)cc2)c([N+](=O)[O-])c1 (configuration not stated) | inconclusive: 100 µM [inhibitor, single point] | 

(list continues)

Row | Structure (SMILES) | Potency | activity change, negative = inhibition
47 | N#Cc1nc(-c2ccco2)oc1NCc1ccccc1Cl | inconclusive: 44.7 µM [inhibitor, partial curve, poor fit] | 
48 | CCOC(=O)c1sc(=S)n(-c2cccc(SC)c2)c1N | inconclusive: 17.8 µM [inhibitor, partial curve, poor fit] | 
49 | COc1ccc(C(=O)COC(=O)CCN2C(=O)[C@@H]3[C@H](C2=O)[C@@H]2C[C@H]3C(Br)C2Br)cc1 (some centres not stated) | inconclusive: 28.2 µM [inhibitor, partial curve] | 
50 | O=C(Cn1ccc([N+](=O)[O-])n1)Nc1nccs1 | inconclusive: 22.4 µM [inhibitor, full curve, poor fit] | 
51 | OC(Cc1c[nH]c2ccccc12)(c1ccccc1)c1ccccc1 | inconclusive: 25.1 µM [inhibitor, single point] | 
52 | O=C(Cc1ccc(Cl)cc1)Nc1cccc(S(=O)(=O)N2CCCCC2)c1 | inactive | 
53 | COc1ccc(-c2csc(NC(=O)CS(=O)(=O)c3ccccc3)n2)cc1OC | inactive | 
54 | COc1ccc(CN(C)C(=O)C23CC4CC(CC(Cl)(C4)C2)C3)c(OC)c1OC | inactive | 
55 | Cc1ccc(CNC(=O)c2cc3c(=O)n(Cc4ccco4)ccc3nc2C)cc1 |  | inconclusive: -35.4% [inhibitor]
56 | CCc1ccc2[nH]c(=O)c(C(c3nnnn3CCOC)N3CCN(c4ccccc4)CC3)cc2c1 (configuration not stated) | inconclusive: 15.8 µM [inhibitor, partial curve, poor fit] | 
57 | O=C(COc1ccc([N+](=O)[O-])cc1Cl)NCCN1C(=O)CSC1=O | inconclusive: 112 µM [inhibitor, single point] | 
58 | Cc1ccc(C(=O)N2C(=S)C(c3ccc(F)cc3)=NC23CCN(C)CC3)cc1 | inconclusive: 50.1 µM [inhibitor, partial curve] | 
59 | CCOc1ccc(CN(C)CC(O)COc2ccc(C)cc2C)cc1OC (configuration not stated) | inconclusive: 1 µM [inhibitor, full curve, poor fit] | 
60 | O=C(O)c1ccccc1-c1cc2ccccc2oc1=O | inactive | 
61 | Cc1ccc(Nc2nc(N)c([N+](=O)[O-])c(NCCO)n2)cc1 | inactive | 
62 | Cc1ccc(N=c2c([N+](=O)[O-])nn(-c3ccccc3)n2O)c(C)c1 | inconclusive: 14.1 µM [inhibitor, full curve, poor fit] | 
63 | CN(CC1CCCN(CCc2ccc(Cl)cc2)C1)C(=O)c1ccco1 (configuration not stated) | inconclusive: 50.1 µM [inhibitor, partial curve, poor fit] | 
64 | Cc1cc(C(C)(C)C)ccc1OCC(=O)N/N=C\c1c(C)n(C)n(-c2ccccc2)c1=O | inconclusive: 7.08 µM [inhibitor, full curve, poor fit] | 
65 | O=C(COc1ccccc1)NCC(=O)N/N=C/c1ccc(O)cc1O | inactive | 
66 | Cc1ccccc1N(CC(=O)N1CCN(c2ccccc2)CC1)S(C)(=O)=O | inconclusive: 0.501 µM [inhibitor, full curve] | 
67 | CCCCCCCCCCCCCCCC[n+]1cccc(C(=O)N(CC)CC)c1 | inconclusive: 50.1 µM [inhibitor, partial curve, poor fit] | 
